Measurements reported in the supplement of paper PMC7752906.
Structures can show the parent of a compound that is named as a salt. The list shows a part of the results. This data set is noisy: repeats of one test often differ as much as different tests do.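 Test system: Schistosoma mansoni schistosomula, roughly 40 per well, imaged in bright field over time and compared with wells given 0.1% DMSO. Distance read-out: the paper calls a drug a hit when its Mahalanobis distance is at least 2.47, three standard deviations above the DMSO control mean. Degeneracy is the share of worms classified opaque.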

Each compound was assayed on Schistosoma mansoni schistosomula (assay: Mahalanobis distance of static-rate-frequency phenotype descriptors from DMSO controls (dimensionless); higher = stronger phenotypic change versus DMSO). Conditions: 10 µM; 72 h.

Compound | Mahalanobis distance
CC(CN(C)C)CN1c2ccccc2CCc2ccccc21 (centres undefined) [Trimipramine] | inactive: 2.22
OC(CCN1CCCC1)(c1ccccc1)C1CCCCC1 (centres undefined) [Procyclidine] | inactive: 2.46
CC(C)NCC(O)COc1cccc2[nH]ccc12 (centres undefined) [Pindolol] | inactive: 1.81
C[N+](C)(C)C[C@H](O)CC(=O)[O-] [Levocarnitine] | active: 3.72
CC(C)C(=O)c1c(C(C)C)nn2ccccc12 [Ibudilast] | inactive: 2.09
C=C1CC[C@H](O)C/C1=C/C=C1\CCC[C@]2(C)[C@@H]([C@H](C)/C=C/[C@H](C)C(C)C)CC[C@@H]12 [Ergocalciferol] | inactive: 2
CC(C)(C)NC(=O)[C@H]1CC[C@H]2[C@@H]3CC[C@H]4NC(=O)C=C[C@]4(C)[C@H]3CC[C@]12C [Finasteride] | active: 3.08
CC(C)(C)CC(C)(C)c1ccc(OCCOCC[N+](C)(C)Cc2ccccc2)cc1 [Benzethonium Chloride] | inactive: 2.09
Cn1nnc2c(C(N)=O)ncn2c1=O [Temozolomide] | inactive: 1.98
CCCCOc1ccc(C(=O)CCN2CCCCC2)cc1 [Dyclonine Hydrochloride] | inactive: 1.75
CC(=O)OCC(=O)[C@@]1(O)CC[C@H]2[C@@H]3CCC4=CC(=O)C=C[C@]4(C)[C@H]3[C@@H](O)C[C@@]21C [Prednisolone Acetate] | inactive: 1.72
NCCc1ccc(O)c(O)c1 [Dopamine Hydrochloride] | inactive: 2.01
CC1(C)O[C@@H]2C[C@H]3[C@@H]4C[C@H](F)C5=CC(=O)C=C[C@]5(C)[C@H]4[C@@H](O)C[C@]3(C)[C@]2(C(=O)CO)O1 [Flunisolide] | inactive: 2.4
CN(Cc1cc(Br)cc(Br)c1N)C1CCCCC1 [Bromhexine] | active: 2.58
C[C@H](CS)C(=O)N1CCC[C@H]1C(=O)O [Captopril] | active: 3.02
COc1cc(NS(=O)(=O)c2ccc(N)cc2)ncn1 [Sulfamonomethoxine] | inactive: 1.78
Cc1cc(C)nc(NS(=O)(=O)c2ccc(N)cc2)n1 [Sulfamethazine] | inactive: 1.39
CN(C(=O)CN(CCO)CC(=O)N(C)C(C)(C)Cc1ccccc1)C(C)(C)Cc1ccccc1 [oxethazaine] | inactive: 1.89
CN1CCN2c3ncccc3Cc3ccccc3C2C1 (centres undefined) [Mirtazapine] | active: 3.09
CCCCCCNC(=O)n1cc(F)c(=O)[nH]c1=O [Carmofur] | active: 3.78
CCCOc1ccccc1-c1nc2[nH]nnc2c(=O)[nH]1 [Zaprinast] | inactive: 1.66
Nc1nc(=O)n([C@@H]2CS[C@H](CO)O2)cc1F [Emtricitabine] | inactive: 1.49
COc1ccc(Cl)cc1C(=O)NCCc1ccc(S(=O)(=O)NC(=O)NC2CCCCC2)cc1 [Glibenclamide, Glyburide] | inactive: 1.77
CCN(CC)CCOCCOC(=O)C1(c2ccccc2)CCCC1 [Carbetapentane Citrate] | inactive: 2.47
C[C@@H]1C[C@H]2[C@@H]3CCC4=CC(=O)C=C[C@]4(C)[C@@]3(F)[C@@H](O)C[C@]2(C)[C@H]1C(=O)CO [Desoximetasone] | inactive: 1.83

Compound | Mahalanobis distance
CC#CCn1c(N2CCC[C@@H](N)C2)nc2c1c(=O)n(Cc1nc(C)c3ccccc3n1)c(=O)n2C [Linagliptin] | inactive: 1.22
O=P(O)(O)C(O)(Cn1ccnc1)P(=O)(O)O [Zoledronic Acid] | inactive: 1.98
CC(C)(CO)[C@@H](O)C(=O)NCCC(=O)O [Pantothenic Acid] | inactive: 1.59
Cc1cc(C(C)(C)C)cc(C)c1CC1=NCCN1 [Xylometazoline] | active: 4.88
CCN(CCCCOC(=O)c1ccc(OC)c(OC)c1)C(C)Cc1ccc(OC)cc1 (centres undefined) [Mebeverine] | inactive: 2.07
COc1cc2nc(N3CCN(C(=O)C4COc5ccccc5O4)CC3)nc(N)c2cc1OC (centres undefined) [Doxazosin] | active: 3.45
CC(=O)Nc1ccc(OC(=O)c2ccccc2O)cc1 [Acetaminosalol] | inactive: 1.85
O=C(CCBr)N1CCN(C(=O)CCBr)CC1 [Pipobroman] | inactive: 1.7
CCCCC1C(=O)N(c2ccccc2)N(c2ccc(O)cc2)C1=O (centres undefined) [Oxyphenbutazone] | inactive: 1.4
CCOC(=O)/C=C(C)/C=C/C=C(C)/C=C/c1c(C)cc(OC)c(C)c1C [Etretinate] | inactive: 1.62
CCOC(=O)Nc1nc2ccccc2[nH]1 [Lobendazole] | inactive: 1.76
O=C(O)c1ccc[n+]([O-])c1 [Oxiniacic Acid] | inactive: 1.56
NC[C@H]1O[C@H](O[C@H]2[C@H](O)[C@@H](O[C@H]3O[C@H](CO)[C@@H](O)[C@H](N)[C@H]3O)[C@H](N)C[C@@H]2N)[C@H](N)C[C@@H]1O [Tobramycin] | inactive: 1.55
Cc1ccc(-c2cc(C(F)(F)F)nn2-c2ccc(S(N)(=O)=O)cc2)cc1 [Celecoxib] | active: 2.66
Nc1ccc(S(=O)(=O)Nc2nccs2)cc1 [Sulfathiazole] | inactive: 1.98
CNCC(O)c1ccc(O)c(O)c1 (centres undefined) [Racepinephrine] | inactive: 1.3
O=C(O)C1=C(CSc2nnnn2CS(=O)(=O)O)CS[C@@H]2[C@H](NC(=O)[C@H](O)c3ccccc3)C(=O)N12 [Cefonicid Sodium] | inactive: 1.5
CCCCCCOc1ccccc1C(N)=O [Exalamide] | inactive: 2.25
NC[C@H](O)c1ccc(O)c(O)c1 [Norepinephrine] | inactive: 2
O=C(CCCl)NCCc1ccccc1 [Fenaclon] | inactive: 2.03
CC(=O)Nc1c(I)cc(I)c(C(=O)O)c1I [Acetriazoic Acid] | inactive: 1.3
Cc1cc2cc3c(C)cc(=O)oc3c(C)c2o1 [Trioxsalen] | inactive: 2.06
CC(=O)Nc1nnc(S(N)(=O)=O)s1 [Acetazolamide] | inactive: 1.89
CC(C)Oc1ccc2c(=O)c(-c3ccccc3)coc2c1 [Ipriflavone] | active: 6.26

Reprinted from above (3 entries):
Compound | Mahalanobis distance
COc1cc2nc(N3CCN(C(=O)C4COc5ccccc5O4)CC3)nc(N)c2cc1OC (centres undefined) [Doxazosin] | active: 3.45
CC(=O)Nc1ccc(OC(=O)c2ccccc2O)cc1 [Acetaminosalol] | inactive: 1.85
O=C(CCBr)N1CCN(C(=O)CCBr)CC1 [Pipobroman] | inactive: 1.7
